# Test results published in patent publication US20180338980A1, “AROMATIC SULFONAMIDE DERIVATIVES” (BAYER PHARMA AKTIENGESELLSCHAFT, priority 2015, published 2018).
# Amino acid sequences for entries named in this document (tags omitted).
# UniProt Q99571, whole entry: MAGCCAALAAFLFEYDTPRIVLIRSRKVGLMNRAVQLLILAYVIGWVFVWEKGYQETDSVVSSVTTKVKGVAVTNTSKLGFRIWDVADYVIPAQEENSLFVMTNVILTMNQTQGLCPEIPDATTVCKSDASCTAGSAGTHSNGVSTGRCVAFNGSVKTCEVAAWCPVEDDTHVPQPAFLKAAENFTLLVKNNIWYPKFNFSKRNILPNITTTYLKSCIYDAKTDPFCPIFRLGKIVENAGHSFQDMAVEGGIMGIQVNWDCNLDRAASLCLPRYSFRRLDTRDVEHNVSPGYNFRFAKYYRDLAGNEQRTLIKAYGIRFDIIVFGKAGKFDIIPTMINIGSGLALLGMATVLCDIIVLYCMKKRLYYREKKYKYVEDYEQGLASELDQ
# The structures given here were assigned with low confidence; some may be wrong.
# Target: human P2X4 receptors (Homo sapiens, UniProt Q99571)
# Test: Assay B: human P2X4 receptor cell line, mitochondrial photina luminescence (agonist Bz-ATP at EC50)
# Assay type: cell-based
structure (smiles),measurement,setting,value
COc1cc(OC)cc(Oc2ccc(NC(=O)Cc3ccccc3)cc2S(N)(=O)=O)c1,human P2X4 Assay B avg Efficacy,"HEK human P2X4 cell line, agonist Bz-ATP at EC50, average",71%
same,IC50,"read-out: human P2X4 Assay B avg IC50, HEK human P2X4 cell line, agonist Bz-ATP at EC50, average",0.302 µM
